Some of the results follow. Shown are side measurements of this screen, not its main read-out; they come without a call. Most of these compounds were active or inconclusive in the main read-out, so they are no random draw. Words in brackets tell the shape of the fitted curve; partial curves, single points and poor fits give uncertain potencies.
Test: qHTS Assay to Find Inhibitors of Chronic Active B-Cell Receptor Signaling
Conditions: ABC-DLBCL IkBa-CBG/CBR reporter, luminescence ratio (green luciferase fused to IkBa over red control in TMD8 lymphoma cells), 4 h; measured here: CBR red luminescence, cell number
Summary of the method: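 TMD8 human ABC-DLBCL cells with doxycycline-inducible IκBα–green luciferase fusion and unfused red luciferase, in 0.5% FBS medium; compounds up to 46 uM, 4 h at 37C. Green/red luminescence ratio, filter-overlap corrected, fitted to concentration-response curves.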
For `Cc1cc(NC(=O)C2CCN(C(=O)c3ccco3)CC2)ccc1Br`, the AC50 was 1.3 µM [rising, full curve]. For `O=S(=O)(Nc1ncccc1O)c1ccc(Cl)cc1`, the AC50 was 3.26 µM [rising, partial curve, poor fit]. With `COc1ccccc1N=c1oc2c(OC)cccc2cc1C(=O)NCc1ccco1` the AC50 was 3.55 µM [falling, full curve]. In the case of `CCOc1ccccc1C(=S)NC1CCCCC1`, the AC50 is reported as 6.31 µM [rising, partial curve]. In the case of `Cc1cc(CSc2ccccc2)ccc1NC(=O)c1cccc([N+](=O)[O-])c1`, the AC50 is reported as 3.98 µM [rising, single point]. With `O=C(N/N=C/c1sc2ccccc2c1O)c1cccc2ccccc12` the AC50 was 23.1 µM [falling, single point]. With `COc1ccc(OC)c(C(O)c2coc3ccc(O)c(CN4CCOCC4)c23)c1` (configuration not stated) the AC50 was 17.8 µM [falling, single point]. In the case of `O=C(O)C/C=C(\NC(=O)OCc1ccccc1)C(=O)OCc1ccccc1`, the AC50 is reported as 3.55 µM [rising, single point]. With `COc1ccccc1/C=N/NC(=O)c1nnn(-c2nonc2N)c1CSC1=NCCS1` the AC50 was 7.31 µM [falling, partial curve]. In the case of `Cc1nc(C)c(C(=O)O)s1`, the AC50 is reported as 35.5 µM [falling, single point]. For `COc1ccccc1C(=O)COC(=O)COc1ccc(C#N)cc1`, the AC50 was 1.64 µM [rising, partial curve, poor fit]. With `O=C1CN2C(=Nc3ccc(Cl)cc3C2c2ccccc2)CN1` (configuration not stated) the AC50 was 29.1 µM [falling, single point]. With `Cc1ccc(C)c(NC(=O)C(OC(=O)c2cc[n+]([O-])cc2)c2ccccc2)c1` (configuration not stated) the AC50 was 6.51 µM [falling, single point]. For `COC(=O)CSC(=S)N1C(C)CCCC1C` (configuration not stated), the AC50 was 10 µM [rising, partial curve, poor fit]. In the case of `COc1cc(/C=N/Nc2ccc(Cl)c(C(=O)O)c2)ccc1OC(=O)c1ccccc1F`, the AC50 is reported as 7.94 µM [falling, partial curve]. With `CCOc1ccc(/C=N/NC(=O)c2[nH]ncc2Br)c(O)c1` the AC50 was 11.2 µM [falling, partial curve]. In the case of `COc1ccccc1CNc1nc2nc(C)cc(=O)n2[nH]1`, the AC50 is reported as 11.6 µM [falling, partial curve, poor fit]. In the case of `Cc1ccc(CNC(=O)COc2ccc(S(=O)(=O)NC(C)C)cc2)cc1`, the AC50 is reported as 29.1 µM [rising, single point]. In the case of `c1ccc(-n2ncc3c(N4CCCCC4)ncnc32)cc1`, the AC50 is reported as 15.8 µM [falling, single point]. In the case of `CCc1ccc2c(COC(=O)c3n[nH]c4ccccc34)cc(=O)oc2c1`, the AC50 is reported as 20 µM [falling, single point]. For `COc1cccc(-c2nn(C)c3sc(C(=O)Nc4ccc5c(c4)OCCO5)cc23)c1`, the AC50 was 1.84 µM [falling, full curve, poor fit]. In the case of `COC(=O)c1cc(NC(=O)Cc2ccc(OC)cc2)cc(C(=O)OC)c1`, the AC50 is reported as 16.4 µM [rising, single point]. For `O=C1N(c2ccccc2)c2ccccc2C1(Cc1ccncc1)Cc1ccncc1`, the AC50 was 15.8 µM [falling, single point]. In the case of `COCCn1ccc2c(OCC(=O)Nc3ccccc3F)cccc2c1=O`, the AC50 is reported as 1.41 µM [falling, full curve]. For `CCOc1ccccc1NC(=O)CCNS(=O)(=O)c1ccc(NC(C)=O)cc1`, the AC50 was 35.5 µM [rising, single point]. In the case of `COC(=O)C(NC(=O)CNS(=O)(=O)c1ccc(Br)cc1)c1ccccc1` (configuration not stated), the AC50 is reported as 11.2 µM [falling, partial curve, poor fit]. For `O=C(N/C=C/c1ccccc1)c1ccccc1`, the AC50 was 7.31 µM [falling, partial curve]. In the case of `CCCCn1c2c(c(=O)n(C)c1=O)C(CC(=O)OCC(=O)Nc1cccc(C(F)(F)F)c1)C(=O)N2` (configuration not stated), the AC50 is reported as 6.31 µM [falling, full curve, poor fit]. For `CCOc1ccccc1NC(=O)C1CCCCN1S(=O)(=O)c1ccc(F)cc1` (configuration not stated), the AC50 was 6.51 µM [rising, partial curve, poor fit]. For `Cc1cccc(-n2c(SCC(=O)NCc3ccc4c(c3)OCO4)nc3ccccc3c2=O)c1`, the AC50 was 1.84 µM [rising, partial curve, poor fit]. With `Cc1ccc(NC(=O)Cn2c(=O)oc3ccccc32)cc1C` the AC50 was 4.47 µM [falling, full curve, poor fit]. For `CCN(CC)S(=O)(=O)c1ccc2c(c1)nc(SC(C)C(N)=O)n2-c1ccc(OC)cc1` (configuration not stated), the AC50 was 7.31 µM [rising, partial curve, poor fit]. In the case of `CNCCCCOc1ccc(C(C)(C)C)cc1Cl`, the AC50 is reported as 22.4 µM [falling, single point]. In the case of `O=C(Nc1nc(-c2ccc(F)cc2)cs1)c1cccc(N2C(=O)CCC2=O)c1`, the AC50 is reported as 10 µM [falling, partial curve]. With `CCc1ccccc1NC(=O)c1cc(-c2ccc(F)cc2)on1` the AC50 was 1 µM [falling, full curve]. With `Cc1cc(C)n(-c2ccc(C(=O)Nc3cccnc3)cc2)n1` the AC50 was 14.1 µM [falling, partial curve, poor fit]. For `O=C(N/N=C/c1ccc[nH]1)c1cc(-c2ccc(Cl)cc2)nc2ccccc12`, the AC50 was 12.6 µM [rising, partial curve, poor fit]. For `COc1ccccc1NC(=O)N1CCC(CN2CCc3ccccc3C2)CC1`, the AC50 was 5.62 µM [rising, partial curve]. With `CC(OC(=O)c1ccccc1N1C(=O)C2C3CCC(C3)C2C1=O)C(=O)c1ccccc1` (configuration not stated) the AC50 was 10.3 µM [rising, partial curve]. For `COc1ccc(-c2nc(C#N)c(N3CCC(C)CC3)o2)cc1`, the AC50 was 2.24 µM [rising, partial curve, poor fit]. For `COC(=O)c1[nH]c2ccc(C)cc2c1NC(=O)CCN1CCN(C2CCCCC2)CC1`, the AC50 was 2.91 µM [rising, partial curve, poor fit]. For `CC1(C)C=C(c2ccc(C=O)s2)CC(C)(C)N1C=O`, the AC50 was 18.4 µM [rising, partial curve, poor fit].
